Experimental data: PubChem BioAssay AID602196 (INSERM, 2012)
The whole screen tested about 23,000 reagents; below is an unselected part. 455 of them (2%) were called active. 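Active includes both protection and sensitisation; some change values fall well beyond the stated -50 to +50 range.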 Reagents against one gene are numbered here. Not given: the amount of reagent.

Screen: 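Knock-downs that protect lung cancer cells from cisplatin or sensitise them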
Cells: human A549 lung cancer cells
Reagent: siRNA pair against human genes
Duration: 48 h transfection before cisplatin; time from cisplatin to read-out not stated
Challenge: cisplatin at a dose killing half of control-siRNA cells; exact dose and duration not given
Detection: 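Cisplatin cell death as a shift from the 50% death seen with control siRNA; siRNAs toxic or growth-blocking alone scored 0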
Direction: two-siRNA summed score (-2 to +2): higher = both siRNAs protect from cisplatin killing; -2 means both sensitise; mean protection from cisplatin (shift in death) and protection from cisplatin (shift in death), siRNA C and protection from cisplatin (shift in death), siRNA D: higher = protection from cisplatin killing
Call rule: 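Each siRNA scores 0 if harmful alone by LDH or WST-1, otherwise +1 if it reduces and -1 if it increases cisplatin killing; a gene is active when both siRNAs agree (sum +2 or -2)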
Calls: active = both siRNAs shift cisplatin killing the same way; inactive = no consistent shift, or siRNA harmful alone

gene knocked down | reagent no. | two-siRNA summed score (-2 to +2) | mean protection from cisplatin (shift in death) (%) | protection from cisplatin (shift in death), siRNA C (%) | protection from cisplatin (shift in death), siRNA D (%) | call
PRMT9 | 1 | 0 | 14 | 7.5 | 20.4 | inactive
CCL20 | 1 | 0 | 3.1 | 5 | 1.3 | inactive
LOC392542 | 1 | 0 | 9.9 | 8.3 | 11.5 | inactive
COPS5 | 1 | -1 | -6.7 | 6.7 | -20.1 | inactive
C4orf17 | 1 | 0 | 7 | 8.7 | 5.3 | inactive
LOC440710 | 1 | 0 | 11.3 | 6.9 | 15.8 | inactive
LOC440974 | 1 | 0 | 4.8 | 1.4 | 8.2 | inactive
IGFALS | 1 | 0 | -2.8 | 32.5 | -38.2 | inactive
KDM5D | 1 | 0 | 5.7 | 0.4 | 10.9 | inactive
ZNF232 | 1 | 1 | 12 | 4.5 | 19.4 | inactive
OARD1 | 1 | 1 | 17.2 | 7.8 | 26.7 | inactive
LOC347527 | 1 | 0 | 7.3 | -2.8 | 17.5 | inactive
CD8B | 1 | 0 | 0.8 | -18.5 | 20 | inactive
DCUN1D4 | 1 | 0 | 11.8 | 17.3 | 6.2 | inactive
LOC440947 | 1 | 0 | 8.8 | 5.4 | 12.3 | inactive
ZFYVE21 | 1 | 0 | 7 | 11.4 | 2.6 | inactive
LOC440080 | 1 | 0 | -0.1 | 10.9 | -11.1 | inactive
DGCR2 | 1 | -1 | -6.6 | -29.5 | 16.4 | inactive
RASAL2 | 1 | 0 | -4.6 | -12.3 | 3.1 | inactive
ADAMTSL4 | 1 | 0 | 7.7 | 4.8 | 10.6 | inactive
ZBTB5 | 1 | 0 | 0.9 | -3.9 | 5.7 | inactive
GPR173 | 1 | 0 | -2.5 | 13.2 | -18.3 | inactive
KCNJ14 | 1 | 0 | 13.3 | 31.4 | -4.9 | inactive
SNX18 | 1 | 0 | 10.8 | 6.4 | 15.3 | inactive
LOC400304 | 1 | 0 | -0.7 | -16 | 14.6 | inactive
ENAH | 1 | 1 | 11.8 | 17.9 | 5.7 | inactive
OR6C65 | 1 | 0 | 11.3 | 10.4 | 12.2 | inactive
FAM174A | 1 | 0 | 3.1 | 12.8 | -6.7 | inactive
LOC389771 | 1 | 0 | 6.3 | 7.6 | 5 | inactive
LOC391825 | 1 | 0 | 8.2 | 17.6 | -1.3 | inactive
LOC440492 | 1 | 0 | 5 | 4.7 | 5.4 | inactive
RBM46 | 1 | 1 | 14.2 | 20.5 | 7.9 | inactive
ACSL6 | 1 | 0 | -2.2 | -10.2 | 5.9 | inactive
CLECL1 | 1 | 0 | 1.8 | 1.9 | 1.8 | inactive
RRM2 | 1 | 0 | 4.5 | 4.7 | 4.3 | inactive
RRM2 | 2 | 0 | 8.8 | 6.6 | 11 | inactive
LOC441027 | 1 | 0 | 10.5 | 16.7 | 4.3 | inactive
H1-8 | 1 | 0 | -2.1 | 3.7 | -7.8 | inactive
CDH10 | 1 | 1 | 6.2 | -9.1 | 21.5 | inactive
LOC391445 | 1 | 1 | 13.6 | 14.2 | 13.1 | inactive
LRRC4B | 1 | 1 | 13 | 15.3 | 10.6 | inactive
RGP1 | 1 | 0 | -2.1 | -5.2 | 1 | inactive
SYT12 | 1 | 0 | 4 | -0.8 | 8.7 | inactive
GPR158 | 1 | 1 | 14 | 17.5 | 10.4 | inactive
TIMP1 | 1 | 0 | 10.7 | 12.2 | 9.1 | inactive
C16orf54 | 1 | 0 | 1.8 | -8.3 | 11.8 | inactive
LELP1 | 1 | 0 | 3.5 | -0.3 | 7.3 | inactive
CBLC | 1 | -1 | -11.8 | -23.2 | -0.4 | inactive
SERPINA7 | 1 | -1 | -7.5 | -2.6 | -12.5 | inactive
IGFBP6 | 1 | 0 | -2.8 | -7.5 | 2 | inactive
GGTLC2 | 1 | 1 | 11.7 | 16.8 | 6.5 | inactive
LOC440716 (retired record) | 1 | 0 | 9.1 | 8.1 | 10.1 | inactive
CHODL | 1 | 0 | 7 | 4.1 | 9.9 | inactive
LOC389432 | 1 | 1 | 14.1 | 0.8 | 27.4 | inactive
OR2T10 | 1 | 0 | 7 | 5 | 9.1 | inactive
SLC1A2 | 1 | 0 | -3.3 | -5.3 | -1.3 | inactive
FAM110D | 1 | 0 | 9.6 | -14.1 | 33.3 | inactive

Ordered by “two-siRNA summed score (-2 to +2)” (lowest first): 5 of the entries above.
gene knocked down | reagent no. | two-siRNA summed score (-2 to +2) | mean protection from cisplatin (shift in death) (%) | protection from cisplatin (shift in death), siRNA C (%) | protection from cisplatin (shift in death), siRNA D (%) | call
CBLC | 1 | -1 | -11.8 | -23.2 | -0.4 | inactive
SERPINA7 | 1 | -1 | -7.5 | -2.6 | -12.5 | inactive
TIMP1 | 1 | 0 | 10.7 | 12.2 | 9.1 | inactive
C16orf54 | 1 | 0 | 1.8 | -8.3 | 11.8 | inactive
LELP1 | 1 | 0 | 3.5 | -0.3 | 7.3 | inactive
